Laboratory results taken from article PMC7568260, “In vitro reconstitution and characterization of pyruvate dehydrogenase and 2‐oxoglutarate dehydrogenase hybrid complex from Corynebacterium glutamicum” (MicrobiologyOpen, 2020).
No constants are given. Whether binding was seen depends on the method and setting. Binding seen in cells or lysates may run through a third protein. Some entries that bind do so weakly or less than the wild type.

By UniProt entry, the sequences of proteins in these tests, tags left out.
UniProt P06959: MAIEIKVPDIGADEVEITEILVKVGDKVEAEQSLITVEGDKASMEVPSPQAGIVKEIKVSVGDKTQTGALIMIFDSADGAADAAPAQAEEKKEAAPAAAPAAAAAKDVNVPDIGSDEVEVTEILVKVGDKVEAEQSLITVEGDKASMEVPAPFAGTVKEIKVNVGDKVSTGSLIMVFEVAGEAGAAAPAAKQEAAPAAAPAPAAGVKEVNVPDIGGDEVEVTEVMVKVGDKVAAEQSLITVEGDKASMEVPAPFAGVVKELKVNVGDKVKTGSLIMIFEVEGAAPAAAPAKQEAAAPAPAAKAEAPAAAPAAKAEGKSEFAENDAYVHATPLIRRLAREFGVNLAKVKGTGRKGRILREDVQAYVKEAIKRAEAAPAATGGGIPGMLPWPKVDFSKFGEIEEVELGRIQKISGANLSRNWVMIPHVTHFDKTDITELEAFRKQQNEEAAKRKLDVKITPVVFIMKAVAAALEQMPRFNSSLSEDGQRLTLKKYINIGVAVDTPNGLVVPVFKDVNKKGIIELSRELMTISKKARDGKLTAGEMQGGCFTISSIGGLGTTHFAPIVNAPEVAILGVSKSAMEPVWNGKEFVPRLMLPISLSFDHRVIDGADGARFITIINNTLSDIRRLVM
UniProt P0AFG8: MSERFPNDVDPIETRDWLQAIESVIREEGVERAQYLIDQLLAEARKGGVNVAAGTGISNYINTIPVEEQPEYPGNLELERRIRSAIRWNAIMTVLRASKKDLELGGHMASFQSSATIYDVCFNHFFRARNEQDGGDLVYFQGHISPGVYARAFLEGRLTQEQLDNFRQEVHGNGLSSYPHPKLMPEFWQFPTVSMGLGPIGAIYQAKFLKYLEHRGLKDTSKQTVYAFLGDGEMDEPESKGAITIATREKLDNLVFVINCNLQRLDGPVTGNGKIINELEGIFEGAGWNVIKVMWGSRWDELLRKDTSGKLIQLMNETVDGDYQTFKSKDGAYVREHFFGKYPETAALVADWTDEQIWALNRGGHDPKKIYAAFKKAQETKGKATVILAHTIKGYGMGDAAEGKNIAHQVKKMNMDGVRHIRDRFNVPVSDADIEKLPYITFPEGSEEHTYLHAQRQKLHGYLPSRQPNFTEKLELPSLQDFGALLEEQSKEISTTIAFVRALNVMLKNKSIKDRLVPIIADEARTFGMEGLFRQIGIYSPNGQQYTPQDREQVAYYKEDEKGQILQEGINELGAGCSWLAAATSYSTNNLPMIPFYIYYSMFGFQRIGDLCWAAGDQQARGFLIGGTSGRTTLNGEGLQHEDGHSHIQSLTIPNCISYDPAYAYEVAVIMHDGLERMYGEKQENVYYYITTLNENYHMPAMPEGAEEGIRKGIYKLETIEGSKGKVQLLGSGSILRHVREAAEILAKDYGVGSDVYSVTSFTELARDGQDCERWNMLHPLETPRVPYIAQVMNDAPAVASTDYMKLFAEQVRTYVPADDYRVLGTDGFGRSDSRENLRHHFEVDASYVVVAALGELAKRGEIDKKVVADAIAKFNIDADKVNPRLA
UniProt P0A9P0: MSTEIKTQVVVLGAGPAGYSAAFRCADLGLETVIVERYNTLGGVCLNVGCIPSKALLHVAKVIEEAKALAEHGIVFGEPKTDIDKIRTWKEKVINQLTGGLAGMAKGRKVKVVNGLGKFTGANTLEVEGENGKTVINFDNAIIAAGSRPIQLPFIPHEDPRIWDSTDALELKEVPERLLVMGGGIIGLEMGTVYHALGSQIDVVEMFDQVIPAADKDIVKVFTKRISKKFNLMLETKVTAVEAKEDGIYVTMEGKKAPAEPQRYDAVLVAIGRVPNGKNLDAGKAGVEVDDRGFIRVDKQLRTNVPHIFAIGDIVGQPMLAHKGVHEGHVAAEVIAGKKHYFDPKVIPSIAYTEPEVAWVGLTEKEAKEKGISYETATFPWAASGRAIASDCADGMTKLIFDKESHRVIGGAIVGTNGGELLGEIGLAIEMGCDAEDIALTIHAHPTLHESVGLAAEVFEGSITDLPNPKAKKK

T1: E. coli SucB (E2o), endogenous (Escherichia coli (endogenous in DH5α)) (UniProt P0AFG6)
T1 sequence: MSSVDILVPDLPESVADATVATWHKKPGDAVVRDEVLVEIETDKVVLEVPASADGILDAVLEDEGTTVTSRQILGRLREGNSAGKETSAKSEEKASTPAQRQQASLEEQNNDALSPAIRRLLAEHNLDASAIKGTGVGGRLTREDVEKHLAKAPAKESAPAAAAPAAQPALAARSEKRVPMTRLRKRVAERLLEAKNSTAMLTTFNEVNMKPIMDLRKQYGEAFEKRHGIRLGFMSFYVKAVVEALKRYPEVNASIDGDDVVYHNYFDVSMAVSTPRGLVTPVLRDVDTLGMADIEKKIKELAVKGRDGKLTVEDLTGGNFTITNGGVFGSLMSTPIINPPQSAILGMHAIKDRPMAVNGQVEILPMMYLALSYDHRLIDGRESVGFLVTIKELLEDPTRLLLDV


How the values were obtained:
[1] = biological target: E. coli AceF (E2p), endogenous (Escherichia coli (endogenous in DH5α)) (UniProt P06959); assay: co-sedimentation; E. coli DH5α cleared lysate on a 15%–45% sucrose density gradient (also 10%–30%, Figure A1) in 50 mM TES-NaOH pH 7.6, 36,000 rpm, 17 h, 4°C; fractions read by Western blot
[2] = biological target: T1, E. coli SucB (E2o), endogenous (Escherichia coli (endogenous in DH5α)); assay: as above

Row | Molecule | binding [1] | binding [2]
1 | E. coli AceE (E1p), endogenous (from UniProt P0AFG8 1-887) (enzyme) | binds | 
2 | E. coli Lpd (E3), endogenous (from UniProt P0A9P0 1-474) (enzyme) | binds | binds
3 | E. coli SucA (E1o), endogenous (enzyme, UniProt P0AFG3 1-933) MQNSALKAWLDSSYLSGANQSWIEQLYEDFLTDPDSVDANWRSTFQQLPGTGVKPDQFHSQTREYFRRLAKDASRYSSTISDPDTNVKQVKVLQLINAYRFRGHQHANLDPLGLWQQDKVADLDPSFHDLTEADFQETFNVGSFASGKETMKLGELLEALKQTYCGPIGAEYMHITSTEEKRWIQQRIESGRATFNSEEKKRFLSELTAAEGLERYLGAKFPGAKRFSLEGGDALIPMLKEMIRHAGNSGTREVVLGMAHRGRLNVLVNVLGKKPQDLFDEFAGKHKEHLGTGDVKYHMGFSSDFQTDGGLVHLALAFNPSHLEIVSPVVIGSVRARLDRLDEPSSNKVLPITIHGDAAVTGQGVVQETLNMSKARGYEVGGTVRIVINNQVGFTTSNPLDARSTPYCTDIGKMVQAPIFHVNADDPEAVAFVTRLALDFRNTFKRDVFIDLVCYRRHGHNEADEPSATQPLMYQKIKKHPTPRKIYADKLEQEKVATLEDATEMVNLYRDALDAGDCVVAEWRPMNMHSFTWSPYLNHEWDEEYPNKVEMKRLQELAKRISTVPEAVEMQSRVAKIYGDRQAMAAGEKLFDWGGAENLAYATLVDEGIPVRLSGEDSGRGTFFHRHAVIHNQSNGSTYTPLQHIHNGQGAFRVWDSVLSEEAVLAFEYGYATAEPRTLTIWEAQFGDFANGAQVVIDQFISSGEQKWGRMCGLVMLLPHGYEGQGPEHSSARLERYLQLCAEQNMQVCVPSTPAQVYHMLRRQALRGMRRPLVVMSPKSLLRHPLAVSSLEELANGTFLPAIGEIDELDPKGVKRVVMCSGKVYYDLLEQRRKNNQHDVAIVRIEQLYPFPHKAMQEVLQQFAHVKDFVWCQEEPLNQGAWYCSQHHFREVIPFGASLRYAGRPASASPAVGYMSVHQKQQQDLVNDALNVE |  | binds
